This is an account of results in PMC9636508.

The chains behind the UniProt entries cited, without tags or fusion partners.
UniProt Q9UNF0: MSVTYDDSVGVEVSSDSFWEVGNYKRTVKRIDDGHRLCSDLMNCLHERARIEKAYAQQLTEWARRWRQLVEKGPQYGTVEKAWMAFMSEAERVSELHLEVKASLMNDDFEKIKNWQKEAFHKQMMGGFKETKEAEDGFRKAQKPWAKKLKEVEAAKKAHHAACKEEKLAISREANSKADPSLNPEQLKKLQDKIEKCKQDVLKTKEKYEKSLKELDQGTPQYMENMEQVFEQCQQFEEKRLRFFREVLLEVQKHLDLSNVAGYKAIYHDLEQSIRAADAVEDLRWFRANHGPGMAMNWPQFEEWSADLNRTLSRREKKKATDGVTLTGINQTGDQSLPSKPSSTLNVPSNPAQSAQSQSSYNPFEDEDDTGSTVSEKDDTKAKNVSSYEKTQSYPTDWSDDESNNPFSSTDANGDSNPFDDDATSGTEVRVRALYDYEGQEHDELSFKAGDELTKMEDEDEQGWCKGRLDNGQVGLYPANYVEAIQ
UniProt Q53SF7: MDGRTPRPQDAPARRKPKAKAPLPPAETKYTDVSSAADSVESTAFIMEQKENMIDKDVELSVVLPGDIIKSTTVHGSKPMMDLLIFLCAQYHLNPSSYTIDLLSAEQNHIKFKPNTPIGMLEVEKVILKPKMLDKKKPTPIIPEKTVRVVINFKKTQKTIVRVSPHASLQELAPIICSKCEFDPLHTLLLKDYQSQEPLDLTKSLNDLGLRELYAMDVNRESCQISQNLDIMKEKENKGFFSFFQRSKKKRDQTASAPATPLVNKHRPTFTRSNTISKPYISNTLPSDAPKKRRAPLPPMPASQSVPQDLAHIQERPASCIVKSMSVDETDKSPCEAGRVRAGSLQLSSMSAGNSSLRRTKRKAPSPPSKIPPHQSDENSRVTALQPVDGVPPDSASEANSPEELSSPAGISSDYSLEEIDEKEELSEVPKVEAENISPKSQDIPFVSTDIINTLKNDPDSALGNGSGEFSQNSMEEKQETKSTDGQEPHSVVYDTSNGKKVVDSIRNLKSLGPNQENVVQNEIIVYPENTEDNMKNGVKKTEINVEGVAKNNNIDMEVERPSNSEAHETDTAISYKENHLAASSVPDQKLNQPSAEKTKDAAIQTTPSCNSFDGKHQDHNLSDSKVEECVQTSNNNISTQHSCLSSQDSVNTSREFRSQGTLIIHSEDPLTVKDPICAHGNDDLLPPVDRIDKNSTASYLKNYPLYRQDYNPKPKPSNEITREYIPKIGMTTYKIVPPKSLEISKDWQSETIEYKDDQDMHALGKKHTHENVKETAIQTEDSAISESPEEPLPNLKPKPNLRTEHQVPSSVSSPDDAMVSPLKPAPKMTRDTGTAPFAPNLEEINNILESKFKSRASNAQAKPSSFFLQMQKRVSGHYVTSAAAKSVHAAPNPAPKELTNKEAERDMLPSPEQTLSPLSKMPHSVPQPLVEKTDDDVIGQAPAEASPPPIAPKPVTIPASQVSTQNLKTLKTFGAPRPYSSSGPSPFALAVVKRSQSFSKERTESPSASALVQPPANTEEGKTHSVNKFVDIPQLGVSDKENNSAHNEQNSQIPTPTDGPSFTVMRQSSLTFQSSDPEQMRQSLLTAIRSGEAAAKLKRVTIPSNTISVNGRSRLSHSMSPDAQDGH

These are yes or no findings as the source states them, for the method shown. In cells and extracts the contact can be indirect. These calls come from enrichment with a bait or labelling near it, and not all partners need be listed.

Experiment [1] concerns the target PACSIN2, bait of the tandem affinity purification (UniProt Q9UNF0). The experiment can be described thus: affinity purification with mass spectrometry; tandem affinity purification with PACSIN2 as bait; cells not told.
In experiment [2] the target is Cobll1, bait of the tandem affinity purification (UniProt Q53SF7). The experiment can be described thus: affinity purification with mass spectrometry; tandem affinity purification with Cobll1 as bait; cells not told.

With “Cobll1, found with the PACSIN2 bait (from UniProt Q53SF7 1-1128)”, the binding result in experiment [1] is reported as “binds”.

Consider “PACSIN2, found by mass spectrometry with the Cobll1 bait (from UniProt Q9UNF0 1-486)”, for which, in experiment [2], the binding result is given as “binds”.
